From the supplement of paper PMC10849652
Some of the results follow.

Chains of the proteins cited; added tags and fusions are not shown. Lines headed by an entry give the natural chain unless they say otherwise; changes in a name come on top.
UniProt Q9P0L0: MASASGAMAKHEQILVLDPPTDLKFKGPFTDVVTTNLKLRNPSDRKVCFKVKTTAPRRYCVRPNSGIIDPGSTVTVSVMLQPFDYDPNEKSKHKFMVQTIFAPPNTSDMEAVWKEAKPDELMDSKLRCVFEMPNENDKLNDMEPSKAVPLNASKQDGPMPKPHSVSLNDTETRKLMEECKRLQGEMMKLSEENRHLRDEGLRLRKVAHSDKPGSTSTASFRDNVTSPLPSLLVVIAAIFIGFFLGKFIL
UniProt Q92890: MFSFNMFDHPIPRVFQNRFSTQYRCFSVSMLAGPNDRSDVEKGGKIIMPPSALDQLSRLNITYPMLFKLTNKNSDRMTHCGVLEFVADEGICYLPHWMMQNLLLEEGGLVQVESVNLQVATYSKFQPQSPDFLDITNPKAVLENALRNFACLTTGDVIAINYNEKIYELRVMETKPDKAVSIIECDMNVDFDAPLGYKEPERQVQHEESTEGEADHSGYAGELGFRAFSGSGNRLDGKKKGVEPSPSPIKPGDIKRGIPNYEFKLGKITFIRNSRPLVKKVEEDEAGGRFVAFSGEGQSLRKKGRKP
UniProt P15374: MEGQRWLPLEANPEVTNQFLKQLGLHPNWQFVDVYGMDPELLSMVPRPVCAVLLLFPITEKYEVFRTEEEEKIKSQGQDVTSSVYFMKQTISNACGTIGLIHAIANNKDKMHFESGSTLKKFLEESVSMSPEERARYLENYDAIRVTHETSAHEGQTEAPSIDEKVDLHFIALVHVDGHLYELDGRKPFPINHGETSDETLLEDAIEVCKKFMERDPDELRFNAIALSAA
UniProt O60763: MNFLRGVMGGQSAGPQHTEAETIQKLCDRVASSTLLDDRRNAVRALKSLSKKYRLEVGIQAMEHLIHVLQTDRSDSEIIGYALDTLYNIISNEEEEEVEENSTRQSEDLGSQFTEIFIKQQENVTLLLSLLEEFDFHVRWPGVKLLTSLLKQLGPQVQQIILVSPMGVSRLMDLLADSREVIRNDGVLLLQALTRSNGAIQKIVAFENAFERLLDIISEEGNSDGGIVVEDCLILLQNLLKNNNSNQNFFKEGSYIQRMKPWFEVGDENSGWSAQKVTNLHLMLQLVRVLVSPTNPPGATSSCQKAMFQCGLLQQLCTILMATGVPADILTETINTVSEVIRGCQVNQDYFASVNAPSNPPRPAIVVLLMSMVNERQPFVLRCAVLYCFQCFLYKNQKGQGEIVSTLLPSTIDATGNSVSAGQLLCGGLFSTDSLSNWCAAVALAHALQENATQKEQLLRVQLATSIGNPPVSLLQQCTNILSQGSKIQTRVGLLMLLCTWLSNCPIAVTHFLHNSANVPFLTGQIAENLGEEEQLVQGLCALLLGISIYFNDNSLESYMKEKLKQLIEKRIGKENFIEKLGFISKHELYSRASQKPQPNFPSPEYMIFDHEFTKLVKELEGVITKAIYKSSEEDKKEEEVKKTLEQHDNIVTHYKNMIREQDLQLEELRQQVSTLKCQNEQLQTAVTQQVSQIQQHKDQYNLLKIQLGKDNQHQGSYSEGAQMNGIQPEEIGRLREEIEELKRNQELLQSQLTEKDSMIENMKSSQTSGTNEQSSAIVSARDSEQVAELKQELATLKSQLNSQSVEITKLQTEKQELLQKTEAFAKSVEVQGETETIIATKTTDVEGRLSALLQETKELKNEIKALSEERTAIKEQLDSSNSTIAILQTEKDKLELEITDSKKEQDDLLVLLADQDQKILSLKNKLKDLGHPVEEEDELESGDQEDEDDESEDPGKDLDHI
UniProt P50552: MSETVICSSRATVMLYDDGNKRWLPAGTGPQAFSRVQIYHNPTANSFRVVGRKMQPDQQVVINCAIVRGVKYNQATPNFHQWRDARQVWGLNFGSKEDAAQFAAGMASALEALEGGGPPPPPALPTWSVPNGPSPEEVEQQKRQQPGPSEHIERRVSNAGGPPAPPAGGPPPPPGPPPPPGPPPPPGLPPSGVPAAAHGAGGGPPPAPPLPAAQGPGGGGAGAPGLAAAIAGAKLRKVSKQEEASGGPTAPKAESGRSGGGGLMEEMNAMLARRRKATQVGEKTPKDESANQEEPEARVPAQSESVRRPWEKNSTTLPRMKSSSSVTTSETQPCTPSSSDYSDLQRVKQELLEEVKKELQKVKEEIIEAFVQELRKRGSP
UniProt Q9BZX2: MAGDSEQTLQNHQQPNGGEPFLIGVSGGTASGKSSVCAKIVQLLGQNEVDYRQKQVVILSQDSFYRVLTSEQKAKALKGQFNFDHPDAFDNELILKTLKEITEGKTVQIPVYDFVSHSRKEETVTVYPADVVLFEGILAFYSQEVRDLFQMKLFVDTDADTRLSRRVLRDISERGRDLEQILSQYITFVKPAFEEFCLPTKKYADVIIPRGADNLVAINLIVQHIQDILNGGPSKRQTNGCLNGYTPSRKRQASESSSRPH
UniProt Q9BZL1: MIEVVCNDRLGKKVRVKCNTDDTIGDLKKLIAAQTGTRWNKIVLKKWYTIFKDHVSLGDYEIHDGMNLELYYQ
UniProt O94888: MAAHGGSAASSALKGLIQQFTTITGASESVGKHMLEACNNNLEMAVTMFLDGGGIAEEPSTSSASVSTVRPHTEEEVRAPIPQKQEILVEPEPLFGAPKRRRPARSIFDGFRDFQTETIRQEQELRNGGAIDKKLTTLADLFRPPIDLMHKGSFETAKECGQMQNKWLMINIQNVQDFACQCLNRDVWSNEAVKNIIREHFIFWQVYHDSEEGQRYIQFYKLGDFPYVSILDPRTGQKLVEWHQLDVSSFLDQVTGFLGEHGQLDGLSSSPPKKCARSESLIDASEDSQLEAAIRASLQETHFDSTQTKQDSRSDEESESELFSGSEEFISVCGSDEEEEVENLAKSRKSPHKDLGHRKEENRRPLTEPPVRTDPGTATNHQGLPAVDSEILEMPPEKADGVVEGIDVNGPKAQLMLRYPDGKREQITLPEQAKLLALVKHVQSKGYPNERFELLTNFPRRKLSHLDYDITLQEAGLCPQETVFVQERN
UniProt P61758, whole entry, looked up: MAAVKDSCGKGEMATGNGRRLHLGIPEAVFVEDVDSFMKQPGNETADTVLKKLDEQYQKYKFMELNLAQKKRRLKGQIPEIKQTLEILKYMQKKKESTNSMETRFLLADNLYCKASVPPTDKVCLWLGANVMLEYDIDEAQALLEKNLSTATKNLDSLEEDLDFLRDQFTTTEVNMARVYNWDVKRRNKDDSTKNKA
UniProt Q96RL1: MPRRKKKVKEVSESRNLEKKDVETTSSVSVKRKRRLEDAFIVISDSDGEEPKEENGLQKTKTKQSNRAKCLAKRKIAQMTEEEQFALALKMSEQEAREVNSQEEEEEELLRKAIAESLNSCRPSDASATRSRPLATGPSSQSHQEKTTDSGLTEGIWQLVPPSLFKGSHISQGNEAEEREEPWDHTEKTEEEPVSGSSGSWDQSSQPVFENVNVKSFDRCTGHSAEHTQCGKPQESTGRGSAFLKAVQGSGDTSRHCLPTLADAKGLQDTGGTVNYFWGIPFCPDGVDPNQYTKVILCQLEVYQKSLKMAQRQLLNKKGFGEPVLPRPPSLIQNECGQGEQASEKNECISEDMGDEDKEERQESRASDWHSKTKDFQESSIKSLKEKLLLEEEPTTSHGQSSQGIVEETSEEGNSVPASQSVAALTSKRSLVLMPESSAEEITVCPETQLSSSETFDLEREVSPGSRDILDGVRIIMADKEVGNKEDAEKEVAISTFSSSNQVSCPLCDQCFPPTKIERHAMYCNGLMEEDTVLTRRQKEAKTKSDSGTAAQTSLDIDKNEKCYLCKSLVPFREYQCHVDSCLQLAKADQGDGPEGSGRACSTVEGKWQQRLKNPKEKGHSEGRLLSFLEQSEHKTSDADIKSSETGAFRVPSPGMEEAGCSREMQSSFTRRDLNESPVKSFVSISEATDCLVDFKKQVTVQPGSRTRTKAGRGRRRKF
UniProt Q9NYU1: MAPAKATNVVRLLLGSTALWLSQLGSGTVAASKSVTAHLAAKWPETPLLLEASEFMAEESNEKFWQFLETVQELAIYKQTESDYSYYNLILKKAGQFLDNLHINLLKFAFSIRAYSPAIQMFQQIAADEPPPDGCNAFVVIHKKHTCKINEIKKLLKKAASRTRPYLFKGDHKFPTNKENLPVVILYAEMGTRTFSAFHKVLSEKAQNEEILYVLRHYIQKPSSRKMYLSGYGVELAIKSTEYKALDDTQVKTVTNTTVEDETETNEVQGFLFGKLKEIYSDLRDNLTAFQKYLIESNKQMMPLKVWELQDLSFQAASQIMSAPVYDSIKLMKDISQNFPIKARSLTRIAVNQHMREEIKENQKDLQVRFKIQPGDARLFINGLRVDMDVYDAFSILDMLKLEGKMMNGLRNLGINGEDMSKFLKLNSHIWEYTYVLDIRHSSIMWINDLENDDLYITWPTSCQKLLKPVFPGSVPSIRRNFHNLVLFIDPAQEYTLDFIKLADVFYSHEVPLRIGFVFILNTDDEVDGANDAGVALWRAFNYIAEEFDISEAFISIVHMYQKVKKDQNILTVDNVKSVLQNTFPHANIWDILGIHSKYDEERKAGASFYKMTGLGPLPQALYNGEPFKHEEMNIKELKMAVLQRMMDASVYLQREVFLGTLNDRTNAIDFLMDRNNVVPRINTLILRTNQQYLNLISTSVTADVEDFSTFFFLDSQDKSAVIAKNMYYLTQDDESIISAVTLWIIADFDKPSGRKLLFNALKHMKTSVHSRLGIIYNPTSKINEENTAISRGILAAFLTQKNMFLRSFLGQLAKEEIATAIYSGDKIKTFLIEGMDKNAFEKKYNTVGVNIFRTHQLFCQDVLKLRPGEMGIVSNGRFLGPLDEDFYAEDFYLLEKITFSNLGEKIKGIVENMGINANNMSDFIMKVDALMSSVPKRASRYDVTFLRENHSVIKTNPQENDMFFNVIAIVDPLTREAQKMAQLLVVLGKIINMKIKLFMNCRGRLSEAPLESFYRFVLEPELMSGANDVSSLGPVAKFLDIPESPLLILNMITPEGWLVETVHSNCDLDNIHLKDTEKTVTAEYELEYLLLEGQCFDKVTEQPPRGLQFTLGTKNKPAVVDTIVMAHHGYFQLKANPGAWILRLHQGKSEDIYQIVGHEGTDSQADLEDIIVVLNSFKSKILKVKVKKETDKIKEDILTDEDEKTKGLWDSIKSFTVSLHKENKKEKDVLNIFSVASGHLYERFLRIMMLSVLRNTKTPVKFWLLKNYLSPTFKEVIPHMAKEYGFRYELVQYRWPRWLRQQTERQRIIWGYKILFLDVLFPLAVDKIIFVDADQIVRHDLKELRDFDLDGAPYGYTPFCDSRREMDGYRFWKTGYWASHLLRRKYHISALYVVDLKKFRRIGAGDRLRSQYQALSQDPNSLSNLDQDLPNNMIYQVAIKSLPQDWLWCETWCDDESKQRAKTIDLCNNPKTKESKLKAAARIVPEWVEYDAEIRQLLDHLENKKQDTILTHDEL
UniProt Q9NQZ2: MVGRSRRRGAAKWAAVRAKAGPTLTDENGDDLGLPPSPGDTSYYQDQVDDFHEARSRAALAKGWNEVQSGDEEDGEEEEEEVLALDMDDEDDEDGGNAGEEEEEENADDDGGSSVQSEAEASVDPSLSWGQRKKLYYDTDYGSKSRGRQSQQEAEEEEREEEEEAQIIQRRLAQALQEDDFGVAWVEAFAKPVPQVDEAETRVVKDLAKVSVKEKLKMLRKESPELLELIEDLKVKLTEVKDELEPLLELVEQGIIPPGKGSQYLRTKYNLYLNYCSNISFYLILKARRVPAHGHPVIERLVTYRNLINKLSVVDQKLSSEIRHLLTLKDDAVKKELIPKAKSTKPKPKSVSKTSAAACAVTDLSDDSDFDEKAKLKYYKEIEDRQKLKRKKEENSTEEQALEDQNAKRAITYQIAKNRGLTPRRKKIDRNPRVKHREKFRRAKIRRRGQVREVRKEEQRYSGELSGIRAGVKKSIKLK
UniProt Q6UW78: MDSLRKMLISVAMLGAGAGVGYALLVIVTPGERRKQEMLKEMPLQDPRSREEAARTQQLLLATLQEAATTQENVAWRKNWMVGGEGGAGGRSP
UniProt Q7Z6J8: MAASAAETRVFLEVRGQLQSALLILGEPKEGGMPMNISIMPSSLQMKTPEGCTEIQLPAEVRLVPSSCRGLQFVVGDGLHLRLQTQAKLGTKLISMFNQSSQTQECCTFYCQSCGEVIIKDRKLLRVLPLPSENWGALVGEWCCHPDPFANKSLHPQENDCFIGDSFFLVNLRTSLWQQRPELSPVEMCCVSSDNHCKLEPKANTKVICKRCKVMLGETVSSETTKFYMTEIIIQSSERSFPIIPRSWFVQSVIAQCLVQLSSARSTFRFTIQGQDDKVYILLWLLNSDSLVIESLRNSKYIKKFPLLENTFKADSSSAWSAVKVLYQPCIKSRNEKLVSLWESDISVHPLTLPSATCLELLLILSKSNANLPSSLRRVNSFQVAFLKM
UniProt O95292, whole entry, looked up: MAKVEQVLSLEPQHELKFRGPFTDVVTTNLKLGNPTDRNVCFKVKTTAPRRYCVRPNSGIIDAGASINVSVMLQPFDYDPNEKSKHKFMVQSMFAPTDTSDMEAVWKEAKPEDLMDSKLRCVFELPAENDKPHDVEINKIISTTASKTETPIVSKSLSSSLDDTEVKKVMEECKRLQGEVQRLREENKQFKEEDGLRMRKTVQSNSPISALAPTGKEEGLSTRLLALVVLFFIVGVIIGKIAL

What was measured:
Assay in all cases: log2 fold change, soluble protein after heating vs DMSO (PISA); higher = thermal stabilisation; K562 cells, 10 uM, 30 min; active = over 0.2 and 3.5 SD of the protein, either way, in both replicates (recomputed)
[1] = compound: Cc1ccc(NC(=O)c2ccc(CN3CC[C@H](N(C)C)C3)c(C(F)(F)F)c2)cc1Nc1nccc(-c2cncnc2)n1 [bafetinib]
Summary of the method: (§1)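 K562 cells at 2×10^6 cells/mL were exposed to 10 μM compound for 30 min, then aliquots were heated for 3 min across 48°C-58°C, pooled, and extracted in PBS containing 0.5% NP-40 at 4°C. The supernatant after 21,000xg for 90 min was taken as soluble protein and measured by TMTpro 16plex LC-MS/MS with channel sums equalised. Thermal stability is reported relative to control samples, with values from duplicates. Fold changes are given on a log2 scale.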

[2] = compound: Cc1cccc(CC(=O)N2CCc3c2ccc(-c2cn(C)c4ncnc(N)c24)c3F)n1
Summary of the method: as §1

[3] = compound: Cc1cn(-c2cc(NC(=O)c3ccc(C)c(Nc4nccc(-c5cccnc5)n4)c3)cc(C(F)(F)F)c2)cn1 [nilotinib]
Summary of the method: as §1

[4] = compound: Cc1nc(Nc2n[nH]c3c2CN(C(=O)N[C@H](CN(C)C)c2ccccc2)C3(C)C)c2sccc2n1
Summary of the method: as §1

[5] = compound: Cc1nc(Nc2ncc(C(=O)Nc3c(C)cccc3Cl)s2)cc(N2CCN(CCO)CC2)n1 [dasatinib]
Summary of the method: as §1

[6] = compound: Cc1ncc(-c2ccnc(Nc3ccc(S(C)(=O)=O)cc3)n2)n1C(C)C
Summary of the method: as §1

[7] = compound: Cn1cc(-c2ccc3c(c2)CCN3C(=O)Cc2cccc(C(F)(F)F)c2)c2c(N)ncnc21
Summary of the method: as §1

[8] = compound: Cn1cc(-c2ccc3nnc(C(F)(F)c4ccc5ncccc5c4)n3n2)cn1
Summary of the method: as §1

[9] = compound: Cn1cncc1[C@@](N)(c1ccc(Cl)cc1)c1ccc2c(c1)c(-c1cccc(Cl)c1)cc(=O)n2C [tipifarnib]
Summary of the method: as §1

[10] = compound: FC(F)(F)c1ccc(/C=C/c2nc(COc3ccc(CCCCn4ccnn4)cc3)co2)cc1 [mubritinib]
Summary of the method: as §1

| Target | log2 fold change [1] | log2 fold change [2] | log2 fold change [3] | log2 fold change [4] | log2 fold change [5] | log2 fold change [6] | log2 fold change [7] | log2 fold change [8] | log2 fold change [9] | log2 fold change [10] |
| --- | --- | --- | --- | --- | --- | --- | --- | --- | --- | --- |
| UFSP2 (UniProt Q9NUQ7) | inactive: -0.01 | inactive: 0.076 | inactive: -0.032 | inactive: -0.022 | inactive: -0.102 | inactive: -0.004 | inactive: -0.029 | inactive: -0.039 | inactive: -0.082 | inactive: 0.084 |
| UQCR10 (UniProt Q9UDW1) | inactive: -0.047 | inactive: -0.011 | inactive: -0.003 | inactive: 0.02 | inactive: -0.009 | inactive: -0.059 | inactive: 0.072 | inactive: 0.084 | inactive: 0.007 | inactive: -0.024 |
| VAMP2 (UniProt P63027) | inactive: 0.045 | inactive: 0.065 | inactive: 0.014 | inactive: 0.014 | inactive: -0.042 | inactive: 0.017 | inactive: 0.234 | inactive: 0.009 | inactive: -0.132 | inactive: 0.04 |
| UBXN4 (UniProt Q92575) | inactive: -0.053 | inactive: 0.031 | inactive: -0.052 | inactive: 0.006 | inactive: -0.034 | inactive: -0.042 | inactive: -0.032 | inactive: 0.064 | inactive: -0.031 | inactive: 0.089 |
| VAPA isoform 2 (UniProt Q9P0L0) | inactive: -0.065 | inactive: 0.007 | inactive: 0.012 | inactive: -0.021 | inactive: 0.023 | inactive: -0.022 | inactive: -0.021 | inactive: -0.009 | inactive: 0.04 | inactive: 0.02 |
| UMAD1 (UniProt C9J7I0) | inactive: -0.038 | inactive: -0.301 | inactive: 0.043 | inactive: -0.023 | inactive: 0.084 | inactive: 0.011 | inactive: -0.054 | inactive: 0.386 | inactive: 0.323 | inactive: 0.016 |
| UFD1 isoform 1 (UniProt Q92890) | inactive: -0.007 | inactive: 0.01 | inactive: 0.025 | inactive: -0.019 | inactive: 0.031 | inactive: -0.003 | inactive: 0.006 | inactive: 0.002 | inactive: -0.046 | inactive: 0.041 |
| VAT1 (UniProt Q99536) | inactive: 0.045 | inactive: -0.001 | inactive: 0.043 | inactive: 0.002 | inactive: 0.009 | inactive: 0.011 | inactive: 0.073 | inactive: -0.006 | inactive: -0.056 | inactive: 0.094 |
| UCHL3 (UniProt P15374) | inactive: -0.018 | inactive: -0.022 | inactive: -0.059 | inactive: -0.063 | inactive: -0.058 | inactive: -0.008 | inactive: 0.034 | inactive: -0.002 | inactive: 0 | inactive: -0.048 |
| USP24 (UniProt Q9UPU5) | inactive: 0.037 | inactive: 0.034 | inactive: 0.096 | inactive: 0.007 | inactive: -0.098 | inactive: 0.09 | inactive: 0.144 | inactive: 0.105 | inactive: -0.072 | inactive: 0.056 |
| USO1 isoform 2 (UniProt O60763) | inactive: -0.055 | inactive: 0.036 | inactive: -0.039 | inactive: -0.024 | inactive: -0.052 | inactive: 0.032 | inactive: -0.017 | inactive: -0.003 | inactive: -0.068 | inactive: 0.032 |
| VASP (UniProt P50552) | inactive: 0.048 | inactive: 0.055 | inactive: -0.146 | inactive: -0.119 | inactive: -0.285 | inactive: 0.056 | inactive: 0.022 | inactive: 0.015 | inactive: -0.106 | inactive: 0.101 |
| USE1 (UniProt Q9NZ43) | inactive: 0.009 | inactive: -0.026 | inactive: -0.012 | inactive: -0.002 | inactive: 0.064 | inactive: -0.013 | inactive: 0.02 | inactive: -0.049 | inactive: 0.012 | inactive: 0.056 |
| UCK2 (UniProt Q9BZX2) | inactive: -0.057 | inactive: 0.04 | inactive: -0.065 | inactive: 0 | inactive: -0.034 | inactive: 0.005 | inactive: 0.063 | inactive: 0.163 | inactive: -0.02 | inactive: -0.008 |
| UBL5 (UniProt Q9BZL1) | inactive: -0.013 | inactive: 0.015 | inactive: 0.052 | inactive: -0.025 | inactive: -0.067 | inactive: 0.021 | inactive: -0.081 | inactive: -0.13 | inactive: 0.093 | inactive: 0.045 |
| UBL4A (UniProt P11441) | inactive: -0.033 | inactive: -0.001 | inactive: -0.041 | inactive: 0.005 | inactive: -0.022 | inactive: 0.022 | inactive: -0.009 | inactive: 0.024 | inactive: -0.041 | inactive: 0.017 |
| UBXN7 (UniProt O94888) | inactive: -0.035 | inactive: 0.015 | inactive: 0.039 | inactive: -0.028 | inactive: -0.049 | inactive: -0.007 | inactive: 0.023 | inactive: -0.046 | inactive: -0.002 | inactive: 0.048 |
| VBP1 (UniProt P61758) | inactive: -0.055 | inactive: -0.005 | inactive: 0.015 | inactive: -0.003 | inactive: 0.057 | inactive: -0.008 | inactive: 0.003 | inactive: 0.025 | inactive: 0.01 | inactive: 0.033 |
| UBR1 (UniProt Q8IWV7) | inactive: 0.126 | inactive: -0.604 | inactive: 0.085 | inactive: -0.315 | inactive: -0.165 | inactive: -0.126 | inactive: -0.153 |  |  | inactive: 0.047 |
| UIMC1 (UniProt Q96RL1) | inactive: 0.049 | inactive: -0.12 | inactive: 0.017 | inactive: 0.031 | inactive: 0.008 | inactive: 0.015 | inactive: -0.113 | inactive: -0.082 | inactive: 0.114 | inactive: -0.082 |
| USP8 (UniProt P40818) | inactive: 0.016 | inactive: 0.063 | inactive: -0.004 | inactive: -0.029 | inactive: -0.24 | inactive: 0.076 | inactive: 0.052 | inactive: -0.04 | inactive: -0.089 | inactive: 0.018 |
| UGGT2 (UniProt Q9NYU1) | inactive: 0.043 | inactive: -0.037 | inactive: -0.011 | inactive: 0.015 | inactive: 0.053 | inactive: 0.086 | inactive: -0.036 | inactive: 0.02 | inactive: 0.046 | inactive: 0.04 |
| UTP3 (UniProt Q9NQZ2) | active: 0.689 | inactive: -0.048 |  |  | inactive: 0.168 |  | inactive: -0.208 | inactive: -0.132 | inactive: 0.212 | inactive: -0.228 |
| UQCC3 (UniProt Q6UW78) | inactive: -0.034 | inactive: -0.104 | inactive: 0.117 | inactive: -0.151 |  | inactive: 0.007 | inactive: -0.148 |  |  |  |
| UFM1 isoform 2 (UniProt P61960) | inactive: -0.061 | inactive: 0.089 | inactive: -0.009 | inactive: 0.023 | inactive: 0.116 | inactive: 0.002 | inactive: 0.045 |  | inactive: -0.016 | inactive: -0.015 |
| UBE3D (UniProt Q7Z6J8) | inactive: -0.036 | inactive: -0.047 | inactive: 0.043 | inactive: -0.001 | inactive: -0.071 | inactive: 0.037 | inactive: 0.003 | inactive: 0.013 | inactive: -0.049 | inactive: 0.009 |
| VCP (UniProt P55072) | inactive: -0.009 | inactive: -0.023 | inactive: 0.001 | inactive: 0.01 | inactive: 0.048 | inactive: -0.017 | inactive: 0.007 | inactive: -0.009 | inactive: 0.039 | inactive: 0 |
| VAPB (UniProt O95292) | inactive: -0.018 | inactive: 0.052 | inactive: -0.001 | inactive: -0.008 | inactive: 0.005 | inactive: -0.006 | inactive: 0.041 | inactive: -0.001 | inactive: 0.022 | inactive: 0.026 |

2 records drawn at random from the list so far:

| Target | log2 fold change [1] | log2 fold change [2] | log2 fold change [3] | log2 fold change [4] | log2 fold change [5] | log2 fold change [6] | log2 fold change [7] | log2 fold change [8] | log2 fold change [9] | log2 fold change [10] |
| --- | --- | --- | --- | --- | --- | --- | --- | --- | --- | --- |
| UBL5 (UniProt Q9BZL1) | inactive: -0.013 | inactive: 0.015 | inactive: 0.052 | inactive: -0.025 | inactive: -0.067 | inactive: 0.021 | inactive: -0.081 | inactive: -0.13 | inactive: 0.093 | inactive: 0.045 |
| UBXN4 (UniProt Q92575) | inactive: -0.053 | inactive: 0.031 | inactive: -0.052 | inactive: 0.006 | inactive: -0.034 | inactive: -0.042 | inactive: -0.032 | inactive: 0.064 | inactive: -0.031 | inactive: 0.089 |
